# Test results reported in PubChem BioAssay AID188 (DTP/NCI, 2004).
# The mice bore no tumour; each value counts animals alive of those treated. Counts of survivors are from the toxicity check (mostly the fifth day) where no day follows; animals may have died later. Schedules are NCI's codes, read here as Q, the interval in days (D) or hours (H), X, the number of doses. Some doses were run more than once; their values stand side by side, smallest first.
# Tested on: CD2F1 mice, nontumored, toxicity/survival
# Assay: NCI In Vivo Anticancer Drug Screen. Data for tumor model Nontumored Animals (Toxicity Test) in CD2F1 (CDF1) mice
smiles,measurement,setting,value
COc1cc2c[n+](C)c3c4cc5c(cc4ccc3c2cc1OC)OCO5,survivor count,"dose: 1.0 mg/kg/injection, schedule: Q03HX016 (ip), vehicle: saline with Tween-80",8 of 8
same,survivor count,"dose: 1.0 mg/kg/injection, schedule: Q03HX024 (ip), vehicle: saline with Tween-80",8 of 8
same,survivor count,"dose: 2.0 mg/kg/injection, schedule: Q01DX009 (ip), vehicle: water",8 of 8
same,survivor count,"dose: 2.0 mg/kg/injection, schedule: Q03HX008 (ip), vehicle: water",8 of 8
same,survivor count,"dose: 2.0 mg/kg/injection, schedule: Q03HX016 (ip), vehicle: saline with Tween-80",8 of 8
same,survivor count,"dose: 2.0 mg/kg/injection, schedule: Q03HX016 (ip), vehicle: water",8 of 8
same,survivor count,"dose: 2.0 mg/kg/injection, schedule: Q03HX024 (ip), vehicle: saline with Tween-80",8 of 8
same,survivor count,"dose: 2.0 mg/kg/injection, schedule: Q03HX024 (ip), vehicle: water",8 of 8
same,survivor count,"dose: 3.12 mg/kg/injection, schedule: Q01DX009 (ip), vehicle: water",8 of 8
same,survivor count,"dose: 4.0 mg/kg/injection, schedule: Q01DX009 (ip), vehicle: water",7 of 8
same,survivor count,"dose: 4.0 mg/kg/injection, schedule: Q01DX009 (sc), vehicle: water",8 of 8
same,survivor count,"dose: 4.0 mg/kg/injection, schedule: Q03HX008 (ip), vehicle: saline with Tween-80",8 of 8
same,survivor count,"dose: 4.0 mg/kg/injection, schedule: Q03HX008 (ip), vehicle: water",8 of 8
same,survivor count,"dose: 4.0 mg/kg/injection, schedule: Q03HX016 (ip), vehicle: saline with Tween-80",8 of 8
same,survivor count,"dose: 4.0 mg/kg/injection, schedule: Q03HX016 (ip), vehicle: water",7 of 8
same,survivor count,"dose: 4.0 mg/kg/injection, schedule: Q03HX024 (ip), vehicle: saline with Tween-80",8 of 8
same,survivor count,"dose: 4.0 mg/kg/injection, schedule: Q03HX024 (ip), vehicle: water",7 of 8
same,survivor count,"dose: 6.25 mg/kg/injection, schedule: Q01DX009 (ip), vehicle: water",8 of 8
same,survivor count,"dose: 8.0 mg/kg/injection, schedule: Q01DX009 (ip), vehicle: saline with Tween-80",8 of 8
same,survivor count,"dose: 8.0 mg/kg/injection, schedule: Q01DX009 (ip), vehicle: water",8 of 8
same,survivor count,"dose: 8.0 mg/kg/injection, schedule: Q01DX009 (oral), vehicle: water",8 of 8
same,survivor count,"dose: 8.0 mg/kg/injection, schedule: Q01DX009 (sc), vehicle: saline with Tween-80",8 of 8
same,survivor count,"dose: 8.0 mg/kg/injection, schedule: Q01DX009 (sc), vehicle: water",8 of 8
same,survivor count,"dose: 8.0 mg/kg/injection, schedule: Q03HX008 (ip), vehicle: saline with Tween-80",8 of 8
same,survivor count,"dose: 8.0 mg/kg/injection, schedule: Q03HX008 (ip), vehicle: water",7 of 8
same,survivor count,"dose: 8.0 mg/kg/injection, schedule: Q03HX016 (ip), vehicle: saline with Tween-80",8 of 8
same,survivor count,"dose: 8.0 mg/kg/injection, schedule: Q03HX016 (ip), vehicle: water",7 of 8
same,survivor count,"dose: 8.0 mg/kg/injection, schedule: Q03HX024 (ip), vehicle: saline with Tween-80",8 of 8
same,survivor count,"dose: 8.0 mg/kg/injection, schedule: Q03HX024 (ip), vehicle: water",7 of 8
same,survivor count,"dose: 8.0 mg/kg/injection, schedule: Q04DX003 (ip), vehicle: saline with Tween-80",8 of 8
same,survivor count,"dose: 8.0 mg/kg/injection, schedule: Q04DX003 (ip), vehicle: water",8 of 8
same,survivor count,"dose: 8.0 mg/kg/injection, schedule: Q08DX002 (ip), vehicle: saline with Tween-80",8 of 8
same,survivor count,"dose: 12.5 mg/kg/injection, schedule: Q01DX009 (ip), vehicle: water",8 of 8
same,survivor count,"dose: 16.0 mg/kg/injection, schedule: Q01DX001 (ip), vehicle: water",8 of 8
same,survivor count,"dose: 16.0 mg/kg/injection, schedule: Q01DX001 (oral), vehicle: water",8 of 8
same,survivor count,"dose: 16.0 mg/kg/injection, schedule: Q01DX001 (sc), vehicle: water",8 of 8
same,survivor count,"dose: 16.0 mg/kg/injection, schedule: Q01DX009 (ip), vehicle: saline with Tween-80",8 of 8
same,survivor count,"dose: 16.0 mg/kg/injection, schedule: Q01DX009 (ip), vehicle: water",8 of 8
same,survivor count,"dose: 16.0 mg/kg/injection, schedule: Q01DX009 (oral), vehicle: water",8 of 8
same,survivor count,"dose: 16.0 mg/kg/injection, schedule: Q01DX009 (sc), vehicle: saline with Tween-80",8 of 8
same,survivor count,"dose: 16.0 mg/kg/injection, schedule: Q01DX009 (sc), vehicle: water",8 of 8
same,survivor count,"dose: 16.0 mg/kg/injection, schedule: Q03HX008 (ip), vehicle: saline with Tween-80",8 of 8
same,survivor count,"dose: 16.0 mg/kg/injection, schedule: Q03HX008 (ip), vehicle: water",1 of 8
same,survivor count,"dose: 16.0 mg/kg/injection, schedule: Q03HX016 (ip), vehicle: saline with Tween-80",8 of 8
same,survivor count,"dose: 16.0 mg/kg/injection, schedule: Q03HX016 (ip), vehicle: water",1 of 8
same,survivor count,"dose: 16.0 mg/kg/injection, schedule: Q03HX024 (ip), vehicle: saline with Tween-80",8 of 8
same,survivor count,"dose: 16.0 mg/kg/injection, schedule: Q03HX024 (ip), vehicle: water",0 of 8
same,survivor count,"dose: 16.0 mg/kg/injection, schedule: Q04DX003 (ip), vehicle: saline with Tween-80",8 of 8
same,survivor count,"dose: 16.0 mg/kg/injection, schedule: Q04DX003 (ip), vehicle: water",8 of 8
same,survivor count,"dose: 16.0 mg/kg/injection, schedule: Q08DX002 (ip), vehicle: saline with Tween-80",8 of 8
same,survivor count,"dose: 16.0 mg/kg/injection, schedule: Q08DX002 (ip), vehicle: water",8 of 8
same,survivor count,"dose: 25.0 mg/kg/injection, schedule: Q01DX009 (ip), vehicle: water",7 of 8 and 8 of 8
same,survivor count,"dose: 32.0 mg/kg/injection, schedule: Q01DX001 (ip), vehicle: saline with Tween-80",8 of 8
same,survivor count,"dose: 32.0 mg/kg/injection, schedule: Q01DX001 (ip), vehicle: water",8 of 8
same,survivor count,"dose: 32.0 mg/kg/injection, schedule: Q01DX001 (oral), vehicle: water",8 of 8
same,survivor count,"dose: 32.0 mg/kg/injection, schedule: Q01DX001 (sc), vehicle: saline with Tween-80",8 of 8
same,survivor count,"dose: 32.0 mg/kg/injection, schedule: Q01DX001 (sc), vehicle: water",2 of 8
same,survivor count,"dose: 32.0 mg/kg/injection, schedule: Q01DX009 (ip), vehicle: saline with Tween-80",8 of 8
same,survivor count,"dose: 32.0 mg/kg/injection, schedule: Q01DX009 (ip), vehicle: water",8 of 8
same,survivor count,"dose: 32.0 mg/kg/injection, schedule: Q01DX009 (oral), vehicle: saline with Tween-80",8 of 8
same,survivor count,"dose: 32.0 mg/kg/injection, schedule: Q01DX009 (oral), vehicle: water",8 of 8
same,survivor count,"dose: 32.0 mg/kg/injection, schedule: Q01DX009 (sc), vehicle: saline with Tween-80",8 of 8
same,survivor count,"dose: 32.0 mg/kg/injection, schedule: Q01DX009 (sc), vehicle: water",8 of 8
same,survivor count,"dose: 32.0 mg/kg/injection, schedule: Q03HX008 (ip), vehicle: saline with Tween-80",8 of 8
same,survivor count,"dose: 32.0 mg/kg/injection, schedule: Q03HX008 (ip), vehicle: water",0 of 8
same,survivor count,"dose: 32.0 mg/kg/injection, schedule: Q03HX016 (ip), vehicle: saline with Tween-80",8 of 8
same,survivor count,"dose: 32.0 mg/kg/injection, schedule: Q04DX003 (ip), vehicle: saline with Tween-80",8 of 8
same,survivor count,"dose: 32.0 mg/kg/injection, schedule: Q04DX003 (ip), vehicle: water",8 of 8
same,survivor count,"dose: 32.0 mg/kg/injection, schedule: Q08DX002 (ip), vehicle: saline with Tween-80",8 of 8
same,survivor count,"dose: 32.0 mg/kg/injection, schedule: Q08DX002 (ip), vehicle: water",8 of 8
same,survivor count,"dose: 50.0 mg/kg/injection, schedule: Q01DX009 (ip), vehicle: water",2 of 8 and 4 of 8
same,survivor count,"dose: 64.0 mg/kg/injection, schedule: Q01DX001 (ip), vehicle: saline with Tween-80",8 of 8
same,survivor count,"dose: 64.0 mg/kg/injection, schedule: Q01DX001 (ip), vehicle: water",8 of 8
same,survivor count,"dose: 64.0 mg/kg/injection, schedule: Q01DX001 (oral), vehicle: water",8 of 8
same,survivor count,"dose: 64.0 mg/kg/injection, schedule: Q01DX001 (sc), vehicle: saline with Tween-80",8 of 8
same,survivor count,"dose: 64.0 mg/kg/injection, schedule: Q01DX001 (sc), vehicle: water",8 of 8
same,survivor count,"dose: 64.0 mg/kg/injection, schedule: Q01DX009 (ip), vehicle: saline with Tween-80",8 of 8
same,survivor count,"dose: 64.0 mg/kg/injection, schedule: Q01DX009 (ip), vehicle: water",0 of 8
same,survivor count,"dose: 64.0 mg/kg/injection, schedule: Q01DX009 (oral), vehicle: saline with Tween-80",8 of 8
same,survivor count,"dose: 64.0 mg/kg/injection, schedule: Q01DX009 (oral), vehicle: water",8 of 8
same,survivor count,"dose: 64.0 mg/kg/injection, schedule: Q01DX009 (sc), vehicle: saline with Tween-80",8 of 8
same,survivor count,"dose: 64.0 mg/kg/injection, schedule: Q01DX009 (sc), vehicle: water",7 of 8
same,survivor count,"dose: 64.0 mg/kg/injection, schedule: Q03HX008 (ip), vehicle: saline with Tween-80",7 of 8
same,survivor count,"dose: 64.0 mg/kg/injection, schedule: Q04DX003 (ip), vehicle: saline with Tween-80",8 of 8
same,survivor count,"dose: 64.0 mg/kg/injection, schedule: Q04DX003 (ip), vehicle: water",8 of 8
same,survivor count,"dose: 64.0 mg/kg/injection, schedule: Q08DX002 (ip), vehicle: saline with Tween-80",8 of 8
same,survivor count,"dose: 64.0 mg/kg/injection, schedule: Q08DX002 (ip), vehicle: water",8 of 8
same,survivor count,"dose: 128.0 mg/kg/injection, schedule: Q01DX001 (ip), vehicle: saline with Tween-80",8 of 8
same,survivor count,"dose: 128.0 mg/kg/injection, schedule: Q01DX001 (ip), vehicle: water",2 of 8
same,survivor count,"dose: 128.0 mg/kg/injection, schedule: Q01DX001 (oral), vehicle: water",8 of 8
same,survivor count,"dose: 128.0 mg/kg/injection, schedule: Q01DX001 (sc), vehicle: saline with Tween-80",8 of 8
same,survivor count,"dose: 128.0 mg/kg/injection, schedule: Q01DX001 (sc), vehicle: water",8 of 8
same,survivor count,"dose: 128.0 mg/kg/injection, schedule: Q01DX009 (ip), vehicle: saline with Tween-80",7 of 8
same,survivor count,"dose: 128.0 mg/kg/injection, schedule: Q01DX009 (oral), vehicle: saline with Tween-80",8 of 8
same,survivor count,"dose: 128.0 mg/kg/injection, schedule: Q01DX009 (oral), vehicle: water",8 of 8
same,survivor count,"dose: 128.0 mg/kg/injection, schedule: Q01DX009 (sc), vehicle: saline with Tween-80",8 of 8
same,survivor count,"dose: 128.0 mg/kg/injection, schedule: Q04DX003 (ip), vehicle: saline with Tween-80",8 of 8
same,survivor count,"dose: 128.0 mg/kg/injection, schedule: Q04DX003 (ip), vehicle: water",4 of 8
same,survivor count,"dose: 128.0 mg/kg/injection, schedule: Q08DX002 (ip), vehicle: saline with Tween-80",8 of 8
same,survivor count,"dose: 128.0 mg/kg/injection, schedule: Q08DX002 (ip), vehicle: water",3 of 8
same,survivor count,"dose: 256.0 mg/kg/injection, schedule: Q01DX001 (ip), vehicle: saline with Tween-80",8 of 8
same,survivor count,"dose: 256.0 mg/kg/injection, schedule: Q01DX001 (oral), vehicle: saline with Tween-80",8 of 8
same,survivor count,"dose: 256.0 mg/kg/injection, schedule: Q01DX001 (sc), vehicle: saline with Tween-80",8 of 8
same,survivor count,"dose: 256.0 mg/kg/injection, schedule: Q01DX009 (oral), vehicle: saline with Tween-80",8 of 8
same,survivor count,"dose: 256.0 mg/kg/injection, schedule: Q08DX002 (ip), vehicle: saline with Tween-80",8 of 8
same,survivor count,"dose: 512.0 mg/kg/injection, schedule: Q01DX001 (ip), vehicle: saline with Tween-80",3 of 8
same,survivor count,"dose: 512.0 mg/kg/injection, schedule: Q01DX001 (oral), vehicle: saline with Tween-80",8 of 8
same,survivor count,"dose: 512.0 mg/kg/injection, schedule: Q01DX001 (sc), vehicle: saline with Tween-80",8 of 8
same,survivor count,"dose: 512.0 mg/kg/injection, schedule: Q01DX009 (oral), vehicle: saline with Tween-80",8 of 8
same,survivor count,"dose: 1024.0 mg/kg/injection, schedule: Q01DX001 (oral), vehicle: saline with Tween-80",8 of 8
same,survivor count,"dose: 2048.0 mg/kg/injection, schedule: Q01DX001 (oral), vehicle: saline with Tween-80",8 of 8
